Results reported in patent publication EP4800029A1, “NOVEL CHEMOKINE-LIKE PROTEIN FRAGMENTS” (Elisigen Inc., priority 2023, dated 2026).
Not every detail of the peptide structures is certain; ends, links or a residue may be inferred. Residues, ends and D or L forms follow the SMILES beside them.

Tested on: neuropathic pain model
Assay: von Frey test in sciatic nerve ligation neuropathic pain model
Assay type: in vivo, mice
Conditions: 2 µg per mouse intrathecally at L4-L5; one hour after administration; control PBS

CC(C)[C@H](NC(=O)[C@H](CCC(N)=O)NC(=O)CNC(=O)[C@@H]1CCCN1C(=O)[C@@H](N)Cc1ccccc1)C(=O)N[C@@H](C)C(=O)NCC(=O)N[C@H](C(=O)N[C@H](C(=O)N[C@@H](CCCNC(=N)N)C(=O)N[C@@H](C)C(=O)N[C@@H](CCC(N)=O)C(=O)N1CCC[C@H]1C(=O)N[C@@H](CO)C(=O)N[C@@H](CS)C(=O)N[C@H](C(=O)N[C@@H](CCC(=O)O)C(=O)O)C(C)C)[C@@H](C)O)[C@@H](C)O [TAFA4 fragment 6, FPGQVAGTTR AQPSCVE] (H-FPGQVAGTTRAQPSCVE-OH)
pain due to nerve ligation (mechanical allodynia, von Frey test): persisted
